{"source": "PubChem BioAssay AID1259308 (NCATS, 2017)", "purpose": "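Candidate targets for better recombinant protein yield in mammalian cells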 (primary screen)", "system": "human HEK293 embryonic kidney cells stably expressing firefly luciferase (HEK-CMV-Luc2-Hygro)", "reagents": "single siRNA against human genes, 0.8 pmol siRNA per well", "time to read-out": "72 h", "detection": "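Luciferase light (ONE-Glo) measured on one replicate plate set and viability (CellTiter-Glo) on the other, scaled to a negative control siRNA, with robust z-scores and luciferase per cell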", "reading the numbers": "total luciferase, z-score and total luciferase, % of control: higher = more reporter protein produced", "call rule": "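An siRNA counts as active if its total luciferase robust z-score exceeds 3; genes with two or more such siRNAs out of three were retested with fresh siRNAs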", "calls": "active = raised luciferase; inactive = no rise", "note": "The whole screen tested about 59,000 reagents; this is an unselected part. About 1,510 of them (2.6%) were called active. 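Calls use total luciferase alone and ignore viability, so some active siRNAs may act by altering cell number.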 Reagents against one gene are numbered here. Not all columns of the deposit are shown. No sequences are given here."}
{"target gene":"DLGAP3","siRNA no.":1,"total luciferase, z-score":0.234,"total luciferase, % of control":86.5,"outcome":"inactive"}
{"target gene":"DLGAP3","siRNA no.":2,"total luciferase, z-score":-0.468,"total luciferase, % of control":72.6,"outcome":"inactive"}
{"target gene":"DLGAP3","siRNA no.":3,"total luciferase, z-score":0.513,"total luciferase, % of control":92.1,"outcome":"inactive"}
{"target gene":"MC4R","siRNA no.":1,"total luciferase, z-score":0.264,"total luciferase, % of control":87.1,"outcome":"inactive"}
{"target gene":"MC4R","siRNA no.":2,"total luciferase, z-score":2.39,"total luciferase, % of control":129,"outcome":"inactive"}
{"target gene":"MC4R","siRNA no.":3,"total luciferase, z-score":-0.721,"total luciferase, % of control":67.5,"outcome":"inactive"}
{"target gene":"GATM","siRNA no.":1,"total luciferase, z-score":-1.57,"total luciferase, % of control":50.6,"outcome":"inactive"}
{"target gene":"GATM","siRNA no.":2,"total luciferase, z-score":0.145,"total luciferase, % of control":84.8,"outcome":"inactive"}
{"target gene":"GATM","siRNA no.":3,"total luciferase, z-score":-1.43,"total luciferase, % of control":53.4,"outcome":"inactive"}
{"target gene":"GALP","siRNA no.":1,"total luciferase, z-score":-0.666,"total luciferase, % of control":68.6,"outcome":"inactive"}
{"target gene":"GALP","siRNA no.":2,"total luciferase, z-score":1.33,"total luciferase, % of control":108,"outcome":"inactive"}
{"target gene":"GALP","siRNA no.":3,"total luciferase, z-score":1.28,"total luciferase, % of control":107,"outcome":"inactive"}
{"target gene":"UTY","siRNA no.":1,"total luciferase, z-score":-0.431,"total luciferase, % of control":73.3,"outcome":"inactive"}
{"target gene":"UTY","siRNA no.":2,"total luciferase, z-score":-1.11,"total luciferase, % of control":59.8,"outcome":"inactive"}
{"target gene":"UTY","siRNA no.":3,"total luciferase, z-score":-0.0805,"total luciferase, % of control":80.3,"outcome":"inactive"}
{"target gene":"OR2B3","siRNA no.":1,"total luciferase, z-score":1.97,"total luciferase, % of control":121,"outcome":"inactive"}
{"target gene":"OR2B3","siRNA no.":2,"total luciferase, z-score":-0.04,"total luciferase, % of control":81.1,"outcome":"inactive"}
{"target gene":"OR2B3","siRNA no.":3,"total luciferase, z-score":-0.035,"total luciferase, % of control":81.2,"outcome":"inactive"}
{"target gene":"PSMB9","siRNA no.":1,"total luciferase, z-score":-0.414,"total luciferase, % of control":73.7,"outcome":"inactive"}
{"target gene":"PSMB9","siRNA no.":2,"total luciferase, z-score":-2.15,"total luciferase, % of control":39.1,"outcome":"inactive"}
{"target gene":"PSMB9","siRNA no.":3,"total luciferase, z-score":-0.348,"total luciferase, % of control":75,"outcome":"inactive"}
